Data published in paper PMC5751204.

Experiments:
[1] = biological target: T1, p120-catenin (human (endogenous in HEK293T)) (UniProt O60716); assay: co-IP; 293T cells treated with ctrl/CM or 90K/CM for 16 h; lysates immunoprecipitated with anti-p120-catenin antibody; blot for E-cadherin
T1 sequence: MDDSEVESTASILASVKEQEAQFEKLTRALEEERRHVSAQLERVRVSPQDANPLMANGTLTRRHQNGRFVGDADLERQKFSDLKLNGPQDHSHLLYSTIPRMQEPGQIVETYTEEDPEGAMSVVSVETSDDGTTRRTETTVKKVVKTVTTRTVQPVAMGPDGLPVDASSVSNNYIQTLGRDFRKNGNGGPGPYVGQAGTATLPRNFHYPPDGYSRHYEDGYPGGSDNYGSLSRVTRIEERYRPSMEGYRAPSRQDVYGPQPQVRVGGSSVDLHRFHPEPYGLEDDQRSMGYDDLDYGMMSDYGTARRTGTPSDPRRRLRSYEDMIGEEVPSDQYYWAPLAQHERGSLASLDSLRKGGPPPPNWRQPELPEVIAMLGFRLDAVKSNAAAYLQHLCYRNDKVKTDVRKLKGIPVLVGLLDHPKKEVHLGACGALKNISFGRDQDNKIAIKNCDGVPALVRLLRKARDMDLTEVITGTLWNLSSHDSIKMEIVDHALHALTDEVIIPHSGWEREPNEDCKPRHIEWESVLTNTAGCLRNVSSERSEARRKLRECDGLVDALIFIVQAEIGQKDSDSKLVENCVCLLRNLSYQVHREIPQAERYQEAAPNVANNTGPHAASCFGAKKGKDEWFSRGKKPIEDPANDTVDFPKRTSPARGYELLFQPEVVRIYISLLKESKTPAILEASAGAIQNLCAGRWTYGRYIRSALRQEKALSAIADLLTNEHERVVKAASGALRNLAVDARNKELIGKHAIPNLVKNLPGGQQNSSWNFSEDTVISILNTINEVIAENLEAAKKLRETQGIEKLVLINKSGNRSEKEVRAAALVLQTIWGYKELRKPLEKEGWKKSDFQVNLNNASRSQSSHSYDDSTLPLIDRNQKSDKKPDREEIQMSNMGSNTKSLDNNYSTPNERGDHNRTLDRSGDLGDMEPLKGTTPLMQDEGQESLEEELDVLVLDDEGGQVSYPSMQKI

[2] = biological target: T1, p120-catenin (human (endogenous in HEK293T)); assay: co-IP; in vitro: 293T cell lysates with or without added 90K, immunoprecipitated with anti-p120-catenin antibody; blot for E-cadherin

**Q.** “E-cadherin (human (endogenous in HEK293T))” was tested. Which binding [1] did it give?
**A.** The binding was “binds”.

**Q.** What about the binding [2] of the same substance?
**A.** Its binding is “binds”.

No constants are given. Whether binding was seen depends on the method and setting. In cells and extracts the contact can be indirect. Binding can be weak; no strength is given.
